According to patent US20200331866A1, “BENZAMIDE COMPOUNDS AND THEIR USE AS HERBICIDES” (BASF SE, priority 2018, published 2020):
Some entries share one result that the patent states for a list of compounds.

Columns and labels:
Assay type in all cases: in vivo
Conditions in all cases: application rate 250 g/ha, scale 0 to 100 (100 = complete destruction, 0 = no damage)
[1] = tested on: ECHCG (Echinocloa crus-galli); assay: Greenhouse post-emergence herbicidal test, test series 1, ECHCG
SETFA (Setaria faberi) = assay: Greenhouse post-emergence herbicidal test, test series 1, SETFA
[2] = tested on: ALOMY (Alopecurus myosuroiedes); assay: Greenhouse post-emergence herbicidal test, test series 1, ALOMY

CCN(CC)C(=S)Nc1c(Br)cc(F)c(C(=O)Nc2nnnn2C)c1C [Example 1, 4-Bromo-3-(diethylcarbamothioylamino)-6-fluoro-2-methyl-N-(1-methyltetrazol-5-yl)benzamide]
> 85%: control of ECHCG [1] | control of SETFA (SETFA (Setaria faberi)) | control of ALOMY [2]
